In patent US20220348569A1 (priority 2021, published 2022) one finds Papp data, which are given here for 1 compound.

Broadly, the Papp is a coefficient for how fast a substance crosses the barrier. Lower therefore signals slow passage.

Structures are written as SMILES.

The series can be described thus: in vitro. The settings on record: human, Caco-2, pH 7.4.

In the case of `CC(C)NCC(O)COc1ccc(CC(N)=O)cc1` (stereo not shown) [Atenolol], the Papp was found to be 0.193 ×10⁻⁶ cm/s.
